The text below walks through data of publication PMC10230156.

By UniProt entry, the sequences of proteins in these tests, tags left out. Residues count along the entry.
UniProt P12314, residues 16-374: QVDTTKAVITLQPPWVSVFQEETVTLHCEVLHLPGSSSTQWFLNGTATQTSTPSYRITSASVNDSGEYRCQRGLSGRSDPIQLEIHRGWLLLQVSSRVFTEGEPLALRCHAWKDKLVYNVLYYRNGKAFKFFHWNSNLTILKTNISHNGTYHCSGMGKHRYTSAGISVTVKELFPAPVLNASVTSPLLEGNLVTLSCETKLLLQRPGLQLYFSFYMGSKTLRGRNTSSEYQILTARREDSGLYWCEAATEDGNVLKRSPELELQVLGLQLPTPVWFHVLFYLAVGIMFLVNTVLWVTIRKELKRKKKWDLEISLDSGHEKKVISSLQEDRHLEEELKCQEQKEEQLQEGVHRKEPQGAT

For the assay, the target named is T1, Histidine‐rich glycoprotein (His-HRG) (UniProt P04196).
T1 sequence: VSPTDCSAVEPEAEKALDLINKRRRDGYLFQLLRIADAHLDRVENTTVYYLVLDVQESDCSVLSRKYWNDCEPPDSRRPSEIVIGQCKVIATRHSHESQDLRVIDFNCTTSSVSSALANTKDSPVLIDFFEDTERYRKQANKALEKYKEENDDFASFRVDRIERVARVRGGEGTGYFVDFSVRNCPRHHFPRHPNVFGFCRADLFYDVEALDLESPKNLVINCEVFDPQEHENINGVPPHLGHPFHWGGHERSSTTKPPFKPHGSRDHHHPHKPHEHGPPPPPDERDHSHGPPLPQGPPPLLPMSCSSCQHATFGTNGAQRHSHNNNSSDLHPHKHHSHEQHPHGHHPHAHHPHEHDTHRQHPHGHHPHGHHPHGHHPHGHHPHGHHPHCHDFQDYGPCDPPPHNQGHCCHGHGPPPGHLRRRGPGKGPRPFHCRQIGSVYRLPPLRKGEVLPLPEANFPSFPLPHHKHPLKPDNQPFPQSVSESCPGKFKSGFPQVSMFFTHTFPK
The assay is described as follows: pull-down; His-pulldown of His-HRG with human neutrophil membrane proteins; FCγR1 detected; only the target purified.

Results are given in words; binding and its absence hold for the method and conditions named. Binding seen in cells or lysates may run through a third protein. Some entries that bind do so weakly or less than the wild type. Tags and fused reporters may be left off the sequences shown.

“FCγR1 of the human neutrophil membrane (from UniProt P12314 16-374) (receptor)”: the binding result was “binds”.
